Test results taken from patent US20130142717A1, “OFFSHORE GAS SEPARATION PROCESS” (priority 2011, published 2013).

Test: Absorption tests of H2S/CO2 on aqueous absorbent solutions, with desorption and reabsorption
Conditions: for Loading (%) = Moles of H2S / Moles of Compound / Selectivity = (H2S/CO2) in solution / (H2S/CO2) in feed gas: 35° C., […] aqueous solution, nitrogen:carbon dioxide:hydrogen sulfide 89:10:1, 2 hours; for Capacity (%): absorption 35° C., desorption 85° C. in flowing nitrogen for 2 hours; for Selectivity-Reabsorption: selectivity after regeneration (desorption 85° C., flowing nitrogen, 2 hours)

## COCCOCCOCCNC(C)(C)C [B, Methoxyethoxyethoxyethanol-tert-butylamine]
  Loading (%) = Moles of H2S / Moles of Compound: 24.2%
  Capacity (%): 98.4%

## CCCCOCCOCCNC(C)(C)C [BEETB, Butoxyethoxyethanol-tert-butylamine]
  Loading (%) = Moles of H2S / Moles of Compound: 16.8%
  Selectivity = (H2S/CO2) in solution / (H2S/CO2) in feed gas: 90.2
  Capacity (%): 92.5%
  Selectivity-Reabsorption: 197.6

## CC(C)(C)NCCOCCNC(C)(C)C [Bis-SE, Bis-(t-butylaminoethyl)ether, reference compound]
  Loading (%) = Moles of H2S / Moles of Compound: 28.2%
  Selectivity = (H2S/CO2) in solution / (H2S/CO2) in feed gas: 16.7
  Capacity (%): 80%
  Selectivity-Reabsorption: 25.2

## CCOCCOCCNC(C)(C)C [EEETB, Ethoxyethoxyethanol-tert-butylamine]
  Loading (%) = Moles of H2S / Moles of Compound: 13.1%
  Selectivity = (H2S/CO2) in solution / (H2S/CO2) in feed gas: 75.4
  Capacity (%): 89.3%
  Selectivity-Reabsorption: 86.7

## COCCOCCNC(C)(C)C [MEETB, Methoxyethoxyethanol-tert-butylamine]
  Loading (%) = Moles of H2S / Moles of Compound: 21.57%
  Selectivity = (H2S/CO2) in solution / (H2S/CO2) in feed gas: 56.01
  Capacity (%): 67.4%
  Selectivity-Reabsorption: 59.6

## CC(C)(C)NCCNC(C)(C)C [TBA-NH—(CH2)2—HN-TBA, reference compound]
  Loading (%) = Moles of H2S / Moles of Compound: 9.8%
  Selectivity = (H2S/CO2) in solution / (H2S/CO2) in feed gas: 26.2
  Capacity (%): 46%
  Selectivity-Reabsorption: 20.2

## Ethoxyethanol-tert-butylamine (tert-butylamino-ethoxy-ethanol)
  Loading (%) = Moles of H2S / Moles of Compound: 16.3%
  Capacity (%): 60%
